The values that follow come from paper doi:10.1101/2020.02.03.932962.

By UniProt entry, the sequences of proteins in these tests, tags left out.
UniProt Q15672, whole entry: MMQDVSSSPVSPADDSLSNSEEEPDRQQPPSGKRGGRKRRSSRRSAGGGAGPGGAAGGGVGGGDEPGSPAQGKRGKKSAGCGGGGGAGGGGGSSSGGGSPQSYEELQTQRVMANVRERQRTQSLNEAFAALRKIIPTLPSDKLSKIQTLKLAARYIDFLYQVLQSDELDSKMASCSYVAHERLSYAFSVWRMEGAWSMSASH
UniProt O95863, whole entry: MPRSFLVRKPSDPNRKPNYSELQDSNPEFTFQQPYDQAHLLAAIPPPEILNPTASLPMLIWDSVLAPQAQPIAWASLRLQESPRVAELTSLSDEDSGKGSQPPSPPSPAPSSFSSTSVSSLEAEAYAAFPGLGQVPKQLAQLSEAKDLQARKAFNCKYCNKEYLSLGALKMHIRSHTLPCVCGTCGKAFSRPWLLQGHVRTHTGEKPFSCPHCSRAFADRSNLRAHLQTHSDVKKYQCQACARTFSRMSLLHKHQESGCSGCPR

One test concerns the target T1, Myc-E47 (UniProt P15923).
T1 sequence: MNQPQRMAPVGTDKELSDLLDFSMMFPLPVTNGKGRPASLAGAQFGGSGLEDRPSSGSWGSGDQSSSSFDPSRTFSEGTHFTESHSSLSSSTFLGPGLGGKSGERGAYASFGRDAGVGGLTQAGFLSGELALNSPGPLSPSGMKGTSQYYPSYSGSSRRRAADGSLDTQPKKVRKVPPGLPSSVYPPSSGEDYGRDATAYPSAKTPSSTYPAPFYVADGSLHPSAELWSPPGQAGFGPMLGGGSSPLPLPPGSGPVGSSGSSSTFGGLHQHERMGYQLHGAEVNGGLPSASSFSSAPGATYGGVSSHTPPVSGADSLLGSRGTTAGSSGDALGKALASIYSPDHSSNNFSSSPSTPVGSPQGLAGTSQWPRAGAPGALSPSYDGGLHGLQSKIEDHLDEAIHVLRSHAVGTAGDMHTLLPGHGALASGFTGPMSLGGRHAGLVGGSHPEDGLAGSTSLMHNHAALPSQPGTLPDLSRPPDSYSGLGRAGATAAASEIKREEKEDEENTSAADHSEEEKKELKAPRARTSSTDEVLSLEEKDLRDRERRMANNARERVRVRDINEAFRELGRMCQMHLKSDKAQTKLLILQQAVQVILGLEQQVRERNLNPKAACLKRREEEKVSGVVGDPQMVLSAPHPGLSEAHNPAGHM
Put plainly: co-IP.

Test [1] deals with Flag-Twist (UniProt Q15672). Put plainly: pull-down.
Test [2] has as its target Flag-Twist (UniProt Q15672). Put plainly: native gel or EMSA. Background: A gel shift assay detects complexes by their altered migration in electrophoresis.
For the next test, the target named is HA-Twist (UniProt Q15672). Put plainly: native gel or EMSA.

Results are given in words; binding and its absence hold for the method and conditions named. For some assays here: In cells and extracts the contact can be indirect. Some results given as binding are weak or reduced against the parent protein; the word gives no strength. Where a sequence is shown, tags or fusion partners need not be part of it.

For HA-Twist (from UniProt Q15672 1-202), the binding entry with Myc-E47 is listed as “binds”.
The same measure, in the same setting: under “Snail-C-Flag (from UniProt O95863 1-264)” stands “no binding”.

B1: Myc-E47 (protein, UniProt P15923-2 1-651)
chain: T1 sequence
Consider B1, for which the binding result in the test with Flag-Twist [1], in the test with Flag-Twist [2] and in the test with HA-Twist was “binds” in each case.
